Assay results: patent US5208135A, “Preparation and use of dyes” (Minnesota Mining and Manufacturing Company, priority 1990, dated 1993)

Key:
[1] = Sensitisation of polymerisation: laser diode exposure of PVA-topcoated layer, toner development (Example 5); details: for Promotion of polymerisation: Example 5 protocol repeated
[2] = Speed enhancement by triphenylphosphine: minimum laser scan time to destroy tackiness (Example 6); details: 1.5 cm lines
[3] = Sensitisation of acrylate polymerisation: tungsten light exposure of laminate, acetone development (Example 4); details: 250W tungsten light source, 30 seconds
Description: The ability of Dye C of the invention and Control Dyes 1 and 2 to sensitise acrylate polymerisation was evaluated by the following protocol.
A solution of Dye C (0.lg), pentaerythritol tetraacrylate monomer (0.6g), commercially available from Ancomer Chemicals under the trade designation ATM 11, 4-butoxyphenyl phenyl iodonium trifluoroacetate (0.125g) shown below as IOD J, and poly(vinyl butyral) (Butvar B-76) (0.6 g), was made in butanone (95 g) in conditions of diminished light. [drawing 30]
The solution was coated onto 0.01 cm unsubbed poly(ethylene terephthalate) (PET) base at a wet thickness of 24μm and dried. A laminate was prepared by covering the monomer coating with a second 0.01 cm PET sheet by cold pressure rolling. The laminate was imagewise exposed to a 250W tungsten light source for 30 seconds using the stage of an overhead projector. […] Stripping of the cover sheet was more readily completed in exposed areas, whereas, in unexposed areas the monomer coatings partially adhered to the cover sheet. The latent image was developed by immersion in acetone, wherein exposed areas remained adhered to the PET base and unexposed areas were rapidly dissolved to obtain a relief image.

For `N#CC(C#N)=C1C(=CC=CC=CC2=C(O)c3ccccc3C2=C(C#N)C#N)C(=O)c2ccccc21` [Dye B], the “Width of tracks observed” value ([1]; 2mW laser diode, 820 nm, 10μm spot, 1 millisecond dwell time) was 100 μm, the Toner powder attachment ([1]; 2mW laser diode, 820 nm, PVA barrier layer stripped off) was “attach to unirradiated areas only” and the “Minimum scan time required to destroy tackiness” value ([2]; coating lacking triphenylphosphine) was 30 s. For the same compound, the “Minimum scan time required to destroy tackiness” value ([2]; coating with triphenylphosphine) was 0.5 s.
In the case of `O=C1C(=CC=CC=CC=CC2=C(O)c3ccccc3C2=O)C(=O)c2ccccc21` [Control Dye 2], the “Loss of dye optical density upon irradiation” value [3] is reported as “complete loss of dye optical density”, the “Polymerisation of acrylate monomer” value [3] is reported as “no evidence of polymerisation was obtained” and the Promotion of polymerisation [1] is reported as “did not promote polymerisation”.
In the case of `N#CC(C#N)=C1C(=CC=CC=CC2=C(O)c3c(cccc3[N+](=O)[O-])C2=C(C#N)C#N)C(=O)c2c1cccc2[N+](=O)[O-]` [Dye C], the “Polymerisation of acrylate monomer” value [3] is reported as “shown to occur in the exposed areas of the monomer coating, but not in unexposed areas”.
For `CCOC(=O)C(C#N)=CC=CC=CC=CC(C#N)=C(O)OCC` [Control Dye 1], the “Loss of dye optical density upon irradiation” value [3] was “complete loss of dye optical density”, the “Polymerisation of acrylate monomer” value [3] was “no evidence of polymerisation was obtained” and the Promotion of polymerisation [1] was “did not promote polymerisation”.
